Source: patent US20050202515A1, “Functional method for generating or screening for ligands which modulate steroid hormone receptors” (Wyeth, priority 2004, published 2005)
Results are given in words; binding and its absence hold for the method and conditions named. For some of these results: In cells and extracts the contact can be indirect. Some binding calls cover weakened binding; strength is not graded here. Sequences can lack the tags named with a protein.

Amino acid sequences for entries named in this document (tags omitted). A change or cut given only in a name is not applied to a line headed by its entry.
UniProt Q8IZL8: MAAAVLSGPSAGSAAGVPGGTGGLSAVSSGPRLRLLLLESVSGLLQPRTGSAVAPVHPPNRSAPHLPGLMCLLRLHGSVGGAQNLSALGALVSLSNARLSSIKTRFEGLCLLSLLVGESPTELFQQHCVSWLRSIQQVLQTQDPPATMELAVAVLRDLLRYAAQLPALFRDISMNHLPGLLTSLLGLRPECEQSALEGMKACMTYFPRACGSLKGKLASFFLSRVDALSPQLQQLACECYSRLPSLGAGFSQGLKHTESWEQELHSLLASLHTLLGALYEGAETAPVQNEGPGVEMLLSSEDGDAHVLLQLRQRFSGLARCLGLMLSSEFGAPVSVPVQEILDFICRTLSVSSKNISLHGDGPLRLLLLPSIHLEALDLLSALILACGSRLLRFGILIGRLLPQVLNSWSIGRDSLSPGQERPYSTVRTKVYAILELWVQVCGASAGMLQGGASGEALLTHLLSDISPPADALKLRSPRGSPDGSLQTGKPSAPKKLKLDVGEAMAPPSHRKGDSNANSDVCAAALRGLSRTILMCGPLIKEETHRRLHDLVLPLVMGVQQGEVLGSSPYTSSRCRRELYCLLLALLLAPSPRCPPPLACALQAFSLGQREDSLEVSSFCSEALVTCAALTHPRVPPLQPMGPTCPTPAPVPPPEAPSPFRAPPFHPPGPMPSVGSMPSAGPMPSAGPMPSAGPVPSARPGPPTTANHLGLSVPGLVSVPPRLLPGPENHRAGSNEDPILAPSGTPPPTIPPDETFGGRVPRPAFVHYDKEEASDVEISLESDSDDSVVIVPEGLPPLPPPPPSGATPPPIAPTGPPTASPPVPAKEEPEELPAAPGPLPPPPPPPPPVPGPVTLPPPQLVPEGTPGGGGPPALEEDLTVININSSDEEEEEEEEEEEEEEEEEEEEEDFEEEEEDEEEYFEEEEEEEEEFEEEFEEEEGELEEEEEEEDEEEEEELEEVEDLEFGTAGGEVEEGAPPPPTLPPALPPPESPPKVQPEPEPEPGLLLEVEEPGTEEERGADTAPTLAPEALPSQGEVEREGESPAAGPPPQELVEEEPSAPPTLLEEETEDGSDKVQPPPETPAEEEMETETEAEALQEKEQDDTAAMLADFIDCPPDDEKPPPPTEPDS

How the values were obtained:
[1] = target: T1, GST fusion to the ligand binding domain of VDR, amino acids 110-427 (GST-VDR-LBD) (human) (UniProt P11473); test: GST pull-down: 35S-labelled full length MNAR with GST-VDR-LBD, with or without 100 nM 1,25(OH)2 Vit D3 (legend of FIG. 1)
T1 sequence: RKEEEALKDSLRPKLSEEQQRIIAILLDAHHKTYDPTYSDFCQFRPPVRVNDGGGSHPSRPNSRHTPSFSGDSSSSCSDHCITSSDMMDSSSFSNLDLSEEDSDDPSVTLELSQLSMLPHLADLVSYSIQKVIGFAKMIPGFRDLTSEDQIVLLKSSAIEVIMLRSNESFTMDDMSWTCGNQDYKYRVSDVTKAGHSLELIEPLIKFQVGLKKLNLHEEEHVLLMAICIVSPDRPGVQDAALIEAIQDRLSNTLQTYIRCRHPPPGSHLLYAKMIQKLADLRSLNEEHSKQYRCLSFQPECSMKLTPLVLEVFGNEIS

[2] = target: T1, GST fusion to the ligand binding domain of VDR, amino acids 110-427 (GST-VDR-LBD) (human); test: GST pull-down: 35S-labelled full length MNAR with GST-VDR-LBD on glutathione-Sepharose, with or without 100 nM 1,25(OH)2 Vit D3, SDS-PAGE and autoradiography
[3] = target: T2, Biotinylated peptide corresponding to MNAR LXXLL motif #5; test: ELISA-type assay: GST-VDR-LBD with vehicle or 100 nM 1,25(OH)2 Vit D3 on immobilised MNAR LXXLL peptides, anti-GST-HRP (legend of FIG. 2)
T2 sequence (peptide, biotinylated (position not stated)): LPGLLTSLL

[4] = target: T2, Biotinylated peptide corresponding to MNAR LXXLL motif #5; test: ELISA-type assay: GST-VDR-LBD preincubated with vehicle or 1,25(OH)2D3 on biotinylated peptide immobilised on a NeutrAvidin plate, anti-GST-HRP chemiluminescence

| Molecule | binding [1] | binding [2] | binding [3] | binding [4] |
| --- | --- | --- | --- | --- |
| Modulator of nongenomic activity of estrogen receptor (MNAR) (from UniProt Q8IZL8 1-1130) | binds | binds | – | – |
| GST fusion to the ligand binding domain of VDR, amino acids 110-427 (GST-VDR-LBD) (receptor, not shown: a dimerising Fc or GST) RKEEEALKDSLRPKLSEEQQRIIAILLDAHHKTYDPTYSDFCQFRPPVRVNDGGGSHPSRPNSRHTPSFSGDSSSSCSDHCITSSDMMDSSSFSNLDLSEEDSDDPSVTLELSQLSMLPHLADLVSYSIQKVIGFAKMIPGFRDLTSEDQIVLLKSSAIEVIMLRSNESFTMDDMSWTCGNQDYKYRVSDVTKAGHSLELIEPLIKFQVGLKKLNLHEEEHVLLMAICIVSPDRPGVQDAALIEAIQDRLSNTLQTYIRCRHPPPGSHLLYAKMIQKLADLRSLNEEHSKQYRCLSFQPECSMKLTPLVLEVFGNEIS | – | – | binds | binds |
